According to the supplement of paper PMC10849652:
The list shows a part of the results.

By UniProt entry, the sequences of proteins in these tests, tags left out. Where a name states a change or a piece, a line headed by the entry shows the natural chain unless it says otherwise.
UniProt Q13546: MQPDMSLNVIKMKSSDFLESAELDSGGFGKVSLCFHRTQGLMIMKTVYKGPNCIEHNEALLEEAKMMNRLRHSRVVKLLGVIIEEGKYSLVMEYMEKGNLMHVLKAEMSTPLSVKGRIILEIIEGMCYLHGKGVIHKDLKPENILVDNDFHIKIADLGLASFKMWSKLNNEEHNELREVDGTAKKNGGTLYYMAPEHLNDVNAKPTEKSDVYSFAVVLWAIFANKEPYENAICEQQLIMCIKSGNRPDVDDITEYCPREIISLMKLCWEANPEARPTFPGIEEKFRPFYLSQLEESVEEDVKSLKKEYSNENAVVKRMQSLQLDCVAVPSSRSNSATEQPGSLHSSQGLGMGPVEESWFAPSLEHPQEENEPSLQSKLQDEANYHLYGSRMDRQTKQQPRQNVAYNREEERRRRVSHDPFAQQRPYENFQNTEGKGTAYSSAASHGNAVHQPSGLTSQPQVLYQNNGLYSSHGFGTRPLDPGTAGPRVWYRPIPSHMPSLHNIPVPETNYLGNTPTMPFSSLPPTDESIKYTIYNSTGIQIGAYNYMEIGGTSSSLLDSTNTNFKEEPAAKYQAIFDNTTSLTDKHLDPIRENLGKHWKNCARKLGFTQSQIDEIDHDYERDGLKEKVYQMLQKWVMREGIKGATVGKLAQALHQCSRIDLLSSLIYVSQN
UniProt Q02094: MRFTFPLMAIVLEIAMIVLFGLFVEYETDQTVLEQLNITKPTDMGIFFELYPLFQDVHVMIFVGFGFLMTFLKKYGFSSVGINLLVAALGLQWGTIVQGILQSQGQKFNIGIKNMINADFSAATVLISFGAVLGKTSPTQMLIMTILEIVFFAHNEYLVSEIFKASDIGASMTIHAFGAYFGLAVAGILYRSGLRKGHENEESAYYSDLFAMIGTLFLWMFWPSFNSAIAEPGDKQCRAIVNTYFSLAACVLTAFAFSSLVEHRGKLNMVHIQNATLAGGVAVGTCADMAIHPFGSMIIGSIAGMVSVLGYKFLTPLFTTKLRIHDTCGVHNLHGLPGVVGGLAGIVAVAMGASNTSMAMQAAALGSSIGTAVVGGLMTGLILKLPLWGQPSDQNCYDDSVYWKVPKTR
UniProt Q5XPI4: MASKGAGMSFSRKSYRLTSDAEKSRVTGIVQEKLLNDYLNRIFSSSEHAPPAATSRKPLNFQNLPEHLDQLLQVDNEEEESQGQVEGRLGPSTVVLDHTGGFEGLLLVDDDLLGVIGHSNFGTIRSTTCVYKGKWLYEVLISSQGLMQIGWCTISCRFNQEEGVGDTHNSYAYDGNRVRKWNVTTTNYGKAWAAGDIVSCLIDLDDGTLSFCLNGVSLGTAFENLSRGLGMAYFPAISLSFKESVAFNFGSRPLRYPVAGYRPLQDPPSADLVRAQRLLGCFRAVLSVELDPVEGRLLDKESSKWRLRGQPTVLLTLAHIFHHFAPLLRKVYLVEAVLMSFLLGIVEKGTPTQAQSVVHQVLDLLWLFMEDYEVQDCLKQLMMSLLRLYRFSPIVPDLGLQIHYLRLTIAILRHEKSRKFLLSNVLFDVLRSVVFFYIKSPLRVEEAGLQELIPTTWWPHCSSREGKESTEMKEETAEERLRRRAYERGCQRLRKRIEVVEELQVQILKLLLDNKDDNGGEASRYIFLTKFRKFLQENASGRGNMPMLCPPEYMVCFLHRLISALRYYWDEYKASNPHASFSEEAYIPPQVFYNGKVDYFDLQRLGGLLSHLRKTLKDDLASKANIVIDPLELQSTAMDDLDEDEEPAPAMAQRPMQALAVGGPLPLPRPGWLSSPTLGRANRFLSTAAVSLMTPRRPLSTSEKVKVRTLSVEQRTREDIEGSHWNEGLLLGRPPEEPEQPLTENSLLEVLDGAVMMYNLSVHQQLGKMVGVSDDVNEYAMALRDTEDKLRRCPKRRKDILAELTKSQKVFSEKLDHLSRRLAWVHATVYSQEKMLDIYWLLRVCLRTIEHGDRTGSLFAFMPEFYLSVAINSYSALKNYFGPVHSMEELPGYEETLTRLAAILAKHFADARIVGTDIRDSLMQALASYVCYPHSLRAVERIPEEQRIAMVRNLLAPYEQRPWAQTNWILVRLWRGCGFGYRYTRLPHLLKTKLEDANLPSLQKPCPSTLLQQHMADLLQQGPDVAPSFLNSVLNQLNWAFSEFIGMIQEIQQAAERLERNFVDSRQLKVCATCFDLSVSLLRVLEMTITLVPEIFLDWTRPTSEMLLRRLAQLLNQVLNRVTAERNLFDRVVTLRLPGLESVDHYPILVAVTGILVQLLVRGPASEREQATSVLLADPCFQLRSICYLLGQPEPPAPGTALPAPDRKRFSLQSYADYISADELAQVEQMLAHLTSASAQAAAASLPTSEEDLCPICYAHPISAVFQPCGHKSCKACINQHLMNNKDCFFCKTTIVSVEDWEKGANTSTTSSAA
UniProt P08134, whole entry, looked up: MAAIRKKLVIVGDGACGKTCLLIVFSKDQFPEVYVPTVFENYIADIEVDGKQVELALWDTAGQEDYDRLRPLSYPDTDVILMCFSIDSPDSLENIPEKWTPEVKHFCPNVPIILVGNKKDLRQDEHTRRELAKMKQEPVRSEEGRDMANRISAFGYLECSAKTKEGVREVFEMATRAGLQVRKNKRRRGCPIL
UniProt P35249, whole entry, looked up: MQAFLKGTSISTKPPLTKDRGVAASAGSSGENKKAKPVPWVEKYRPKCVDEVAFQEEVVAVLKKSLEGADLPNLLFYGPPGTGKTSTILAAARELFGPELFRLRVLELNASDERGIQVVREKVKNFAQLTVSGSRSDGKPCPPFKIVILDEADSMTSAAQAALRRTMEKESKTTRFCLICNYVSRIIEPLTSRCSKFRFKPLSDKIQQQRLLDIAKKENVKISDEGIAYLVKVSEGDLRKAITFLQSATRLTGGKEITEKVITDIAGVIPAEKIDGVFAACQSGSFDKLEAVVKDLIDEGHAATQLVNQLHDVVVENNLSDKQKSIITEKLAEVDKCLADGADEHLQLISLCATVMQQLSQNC
UniProt P34096: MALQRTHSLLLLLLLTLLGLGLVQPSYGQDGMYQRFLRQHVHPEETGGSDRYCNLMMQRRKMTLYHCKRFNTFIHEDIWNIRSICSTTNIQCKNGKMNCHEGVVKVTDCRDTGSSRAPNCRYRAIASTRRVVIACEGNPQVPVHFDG
UniProt Q9Y2P8: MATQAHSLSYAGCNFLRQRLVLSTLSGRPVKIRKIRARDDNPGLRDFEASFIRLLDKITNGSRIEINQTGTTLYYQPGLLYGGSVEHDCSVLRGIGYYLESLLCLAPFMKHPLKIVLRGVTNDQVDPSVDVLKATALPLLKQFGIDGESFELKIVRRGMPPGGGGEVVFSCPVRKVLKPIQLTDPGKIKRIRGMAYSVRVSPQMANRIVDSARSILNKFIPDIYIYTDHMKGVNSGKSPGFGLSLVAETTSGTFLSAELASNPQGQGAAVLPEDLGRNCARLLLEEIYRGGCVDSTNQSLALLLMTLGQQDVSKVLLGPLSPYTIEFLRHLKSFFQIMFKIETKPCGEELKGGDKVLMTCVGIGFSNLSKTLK
UniProt Q9H871: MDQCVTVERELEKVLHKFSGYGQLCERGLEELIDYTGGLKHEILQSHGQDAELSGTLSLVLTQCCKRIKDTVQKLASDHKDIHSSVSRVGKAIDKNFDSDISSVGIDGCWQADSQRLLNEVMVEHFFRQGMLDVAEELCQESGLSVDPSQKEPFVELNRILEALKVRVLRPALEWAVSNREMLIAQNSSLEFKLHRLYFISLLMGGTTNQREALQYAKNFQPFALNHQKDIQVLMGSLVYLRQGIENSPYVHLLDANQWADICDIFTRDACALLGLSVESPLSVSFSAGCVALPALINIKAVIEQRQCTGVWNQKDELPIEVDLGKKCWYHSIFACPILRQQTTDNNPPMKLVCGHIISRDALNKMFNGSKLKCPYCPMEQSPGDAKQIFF
UniProt Q04864: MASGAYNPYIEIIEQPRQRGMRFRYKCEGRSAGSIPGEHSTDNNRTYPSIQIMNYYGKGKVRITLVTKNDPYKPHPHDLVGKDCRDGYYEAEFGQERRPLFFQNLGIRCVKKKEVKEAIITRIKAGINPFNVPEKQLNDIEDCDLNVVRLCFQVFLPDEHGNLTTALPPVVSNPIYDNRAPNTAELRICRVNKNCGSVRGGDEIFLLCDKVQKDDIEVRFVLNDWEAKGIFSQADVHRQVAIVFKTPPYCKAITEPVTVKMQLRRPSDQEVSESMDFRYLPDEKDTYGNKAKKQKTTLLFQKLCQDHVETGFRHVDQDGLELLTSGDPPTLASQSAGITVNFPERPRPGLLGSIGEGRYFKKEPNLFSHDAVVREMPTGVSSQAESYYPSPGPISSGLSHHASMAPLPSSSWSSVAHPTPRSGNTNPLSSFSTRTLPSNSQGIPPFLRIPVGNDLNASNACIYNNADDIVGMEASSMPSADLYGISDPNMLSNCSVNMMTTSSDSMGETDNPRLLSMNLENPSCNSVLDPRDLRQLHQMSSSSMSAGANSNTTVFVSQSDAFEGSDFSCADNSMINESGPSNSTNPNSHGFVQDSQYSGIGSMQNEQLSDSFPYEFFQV
UniProt O43353, whole entry, looked up: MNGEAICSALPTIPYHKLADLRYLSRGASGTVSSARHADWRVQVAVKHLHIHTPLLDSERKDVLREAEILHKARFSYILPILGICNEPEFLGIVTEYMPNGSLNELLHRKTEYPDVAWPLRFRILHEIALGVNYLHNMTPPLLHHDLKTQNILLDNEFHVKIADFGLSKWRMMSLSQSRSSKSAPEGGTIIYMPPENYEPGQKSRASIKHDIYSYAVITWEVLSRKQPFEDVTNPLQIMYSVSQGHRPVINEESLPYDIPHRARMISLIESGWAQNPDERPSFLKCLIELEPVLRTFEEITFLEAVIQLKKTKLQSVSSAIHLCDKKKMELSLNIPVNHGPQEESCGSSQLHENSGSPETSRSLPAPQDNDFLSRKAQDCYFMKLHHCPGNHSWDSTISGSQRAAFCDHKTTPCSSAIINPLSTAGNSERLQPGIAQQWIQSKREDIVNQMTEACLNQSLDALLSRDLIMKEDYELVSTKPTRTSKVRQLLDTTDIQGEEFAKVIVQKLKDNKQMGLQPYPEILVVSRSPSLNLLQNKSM
UniProt P84095: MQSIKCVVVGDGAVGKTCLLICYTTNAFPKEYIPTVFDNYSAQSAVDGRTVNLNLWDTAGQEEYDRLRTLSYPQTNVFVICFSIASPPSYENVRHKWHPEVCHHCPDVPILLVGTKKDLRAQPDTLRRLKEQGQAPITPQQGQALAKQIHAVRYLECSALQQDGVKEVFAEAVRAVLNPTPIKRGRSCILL
UniProt Q8TC12: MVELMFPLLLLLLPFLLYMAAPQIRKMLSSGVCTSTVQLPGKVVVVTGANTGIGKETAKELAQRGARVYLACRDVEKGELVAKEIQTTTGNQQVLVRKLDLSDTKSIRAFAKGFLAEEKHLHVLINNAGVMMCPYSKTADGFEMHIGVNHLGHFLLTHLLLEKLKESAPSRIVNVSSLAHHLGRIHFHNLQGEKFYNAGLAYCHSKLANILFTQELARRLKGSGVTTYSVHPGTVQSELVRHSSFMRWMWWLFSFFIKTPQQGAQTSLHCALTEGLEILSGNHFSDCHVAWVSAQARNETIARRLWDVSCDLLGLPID
UniProt P62877, whole entry, looked up: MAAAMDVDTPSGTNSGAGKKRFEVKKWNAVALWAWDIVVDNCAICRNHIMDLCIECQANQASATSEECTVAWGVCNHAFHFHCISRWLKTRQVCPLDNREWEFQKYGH
UniProt Q8NBN7: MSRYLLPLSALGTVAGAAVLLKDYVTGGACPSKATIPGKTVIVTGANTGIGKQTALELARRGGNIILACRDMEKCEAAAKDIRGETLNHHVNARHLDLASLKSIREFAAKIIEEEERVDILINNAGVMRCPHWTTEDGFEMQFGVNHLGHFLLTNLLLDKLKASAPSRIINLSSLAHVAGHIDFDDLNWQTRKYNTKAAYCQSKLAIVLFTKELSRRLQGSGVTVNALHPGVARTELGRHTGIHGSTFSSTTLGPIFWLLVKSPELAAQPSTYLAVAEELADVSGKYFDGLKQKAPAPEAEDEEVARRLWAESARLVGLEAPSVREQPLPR
UniProt Q8WVD3: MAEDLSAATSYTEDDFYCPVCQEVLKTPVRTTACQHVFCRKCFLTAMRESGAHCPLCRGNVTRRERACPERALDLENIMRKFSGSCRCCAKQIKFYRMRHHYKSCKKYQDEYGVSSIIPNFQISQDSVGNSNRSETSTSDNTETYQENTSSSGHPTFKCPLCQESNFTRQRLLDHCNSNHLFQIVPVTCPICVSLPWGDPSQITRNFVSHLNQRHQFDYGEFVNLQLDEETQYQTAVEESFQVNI
UniProt A6NED2: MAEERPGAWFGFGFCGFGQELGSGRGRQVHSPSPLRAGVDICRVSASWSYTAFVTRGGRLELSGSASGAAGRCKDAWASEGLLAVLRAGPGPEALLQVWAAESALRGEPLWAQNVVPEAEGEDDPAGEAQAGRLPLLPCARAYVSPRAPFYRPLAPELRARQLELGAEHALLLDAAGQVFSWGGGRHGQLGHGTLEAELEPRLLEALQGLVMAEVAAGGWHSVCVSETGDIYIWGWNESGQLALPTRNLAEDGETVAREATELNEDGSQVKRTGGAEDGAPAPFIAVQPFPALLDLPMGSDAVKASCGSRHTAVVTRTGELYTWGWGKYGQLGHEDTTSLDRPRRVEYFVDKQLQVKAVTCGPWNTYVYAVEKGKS

What was measured:
Assay in all cases: log2 fold change, soluble protein after heating vs DMSO (PISA); higher = thermal stabilisation; K562 cells, 10 uM, 30 min; active = over 0.2 and 3.5 SD of the protein, either way, in both replicates (recomputed)
erlotinib = compound: C#Cc1cccc(Nc2ncnc3cc(OCCOC)c(OCCOC)cc23)c1 [erlotinib]
Summary of the method: (§1)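 Soluble protein was defined as the supernatant after 21,000xg for 90 min. It came from K562 cells at 2×10^6 cells/mL given 10 μM compound for 30 min, heated in aliquots for 3 min across 48°C-58°C, pooled, and extracted in PBS with 0.5% NP-40 at 4°C, and was quantified by TMTpro 16plex LC-MS/MS with equalised channel sums. Thermal stability against control samples, from duplicates, is reported as log2 fold change.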

[1] = compound: C/C(=N\NC(=O)C1=CC(=CC=C1)S(=O)(=O)N2CCOCC2)/C3=C(C=CC(=C3)Cl)O
Summary of the method: as §1

[2] = compound: C1=CC(=C(C=C1Cl)C2=NC3=NC=CN=C3C(=N2)NC4=CC=NC=C4)F
Summary of the method: as §1

[3] = compound: C1=CC(=CC=C1C2=NC3=C(N2)C=C(C=C3)C(=O)N)OC4=CC=C(C=C4)Cl
Summary of the method: as §1

[4] = compound: C1=CC2=C(C=CC(=C2)/C=C\3/C(=O)NC(=NCC4=CC=CS4)S3)N=C1
Summary of the method: as §1

[5] = compound: C1=CC2=NC=CN=C2C=C1/C=C/3\C(=O)NC(=O)S3
Summary of the method: as §1

[6] = compound: C1=CC=C(C=C1)C2=NC(=C(N2)C3=CC=NC=C3)C4=CC(=C(C=C4)Cl)O
Summary of the method: as §1

[7] = compound: C1=CC=C2C(=C1)C3=NNC4=CC=CC(=C43)C2=O
Summary of the method: as §1

[8] = compound: C1CCN(C1)C(=O)NC2=CC=CC(=C2)NC3=NC=C(C(=N3)NCCC4=CN=CN4)Br
Summary of the method: as §1

[9] = compound: C1CN(CCC1(CC2=CC=C(C=C2)Cl)N)C3=NC=NC4=C3C=CN4
Summary of the method: as §1

Measured: log2 fold change

RIOK1 (UniProt Q9BRS2)
inactive: erlotinib 0 | [1] -0.05 | [2] -0.062 | [3] 0.045 | [4] 0.014 | [5] 0.029 | [6] -0.069 | [7] 0.001 | [8] 0.046 | [9] -0.013

RCSD1 (UniProt Q6JBY9)
inactive: erlotinib 0.047 | [1] -0.133 | [2] 0.054 | [3] -0.008 | [4] -0.044 | [5] 0.098 | [6] -0.113 | [7] 0.032 | [8] 0.039 | [9] 0.074

RNF149 (UniProt Q8NC42)
inactive: erlotinib -0.072 | [1] 0.022 | [2] -0.025 | [3] 0.066 | [4] 0.009 | [5] -0.043 | [6] 0.016 | [7] -0.069 | [8] -0.052 | [9] -0.041

RIPK1 (UniProt Q13546)
inactive: erlotinib 0.013 | [1] -0.008 | [2] -0.028 | [3] 0 | [4] 0.068 | [5] -0.016 | [6] 0.004 | [7] 0.219 | [8] 0.002 | [9] -0.015

RGP1 (UniProt Q92546)
inactive: erlotinib 0.145 | [1] -0.002 | [2] 0.111 | [3] 0.008 | [4] 0.326 | [5] 0.096 | [6] -0.111 | [7] -0.017 | [8] 0.232 | [9] 0.068

REXO2 (UniProt Q9Y3B8)
inactive: erlotinib -0.002 | [1] 0.024 | [2] 0.013 | [3] 0.03 | [4] 0.026 | [5] 0.013 | [6] 0.013 | [7] 0.022 | [8] 0.027 | [9] 0.035

RHAG (UniProt Q02094)
inactive: erlotinib -0.003 | [1] 0.036 | [2] -0.025 | [3] -0.022 | [4] -0.086 | [5] 0.088 | [6] 0.218 | [7] 0.072 | [8] 0.015 | [9] 0.032

RNF123 isoform 2 (UniProt Q5XPI4)
inactive: erlotinib 0.076 | [1] 0.003 | [2] 0.039 | [3] -0.025 | [4] 0.029 | [5] 0.033 | [6] -0.04 | [7] -0.017 | [8] 0.012 | [9] 0.025

RHOC (UniProt P08134)
inactive: erlotinib -0.042 | [1] -0.019 | [2] 0.02 | [3] 0.022 | [4] -0.009 | [5] 0.016 | [6] 0.026 | [7] -0.017 | [8] -0.031 | [9] 0.04

RFC4 (UniProt P35249)
inactive: erlotinib 0.013 | [1] 0.046 | [2] 0.111 | [3] 0.012 | [4] -0.006 | [5] 0.015 | [6] 0.029 | [7] 0.01 | [8] -0.043 | [9] 0.013

RNASE4 (UniProt P34096)
inactive: erlotinib -0.146 | [1] -0.017 | [2] 0.338 | [3] 0.037 | [4] -0.037 | [5] -0.019 | [6] -0.016 | [7] -0.111 | [8] -0.069 | [9] 0.099

RCL1 (UniProt Q9Y2P8)
inactive: erlotinib -0.144 | [1] -0.098 | [2] -0.399 | [3] 0.015 | [4] -0.064 | [5] -0.015 | [6] -0.003 | [7] 0.086 | [8] 0.069 | [9] -0.168

RGS10 (UniProt O43665)
inactive: erlotinib -0.044 | [1] 0.048 | [2] 0.076 | [3] 0.009 | [4] -0.03 | [5] 0.002 | [6] 0.073 | [7] -0.015 | [8] -0.069 | [9] 0.036

5 consecutive entries out of the list so far, for reference:
RHOC (UniProt P08134)
inactive: erlotinib -0.042 | [1] -0.019 | [2] 0.02 | [3] 0.022 | [4] -0.009 | [5] 0.016 | [6] 0.026 | [7] -0.017 | [8] -0.031 | [9] 0.04

RFC4 (UniProt P35249)
inactive: erlotinib 0.013 | [1] 0.046 | [2] 0.111 | [3] 0.012 | [4] -0.006 | [5] 0.015 | [6] 0.029 | [7] 0.01 | [8] -0.043 | [9] 0.013

RNASE4 (UniProt P34096)
inactive: erlotinib -0.146 | [1] -0.017 | [2] 0.338 | [3] 0.037 | [4] -0.037 | [5] -0.019 | [6] -0.016 | [7] -0.111 | [8] -0.069 | [9] 0.099

RCL1 (UniProt Q9Y2P8)
inactive: erlotinib -0.144 | [1] -0.098 | [2] -0.399 | [3] 0.015 | [4] -0.064 | [5] -0.015 | [6] -0.003 | [7] 0.086 | [8] 0.069 | [9] -0.168

RGS10 (UniProt O43665)
inactive: erlotinib -0.044 | [1] 0.048 | [2] 0.076 | [3] 0.009 | [4] -0.03 | [5] 0.002 | [6] 0.073 | [7] -0.015 | [8] -0.069 | [9] 0.036

Next part.

RMND5A (UniProt Q9H871)
inactive: erlotinib -0.076 | [1] -0.047 | [2] -0.025 | [3] 0.029 | [4] 0.014 | [5] 0.028 | [6] -0.078 | [7] 0.017 | [8] 0.048 | [9] -0.067

REL (UniProt Q04864)
inactive: erlotinib 0.076 | [1] -0.013 | [2] -0.007 | [3] 0.003 | [4] 0.024 | [5] -0.037 | [6] -0.029 | [7] -0.013 | [8] -0.082 | [9] 0.01

RIPK2 (UniProt O43353)
inactive: erlotinib -0.091 | [1] 0.055 | [2] 0.028 | [3] 0.048 | [4] -0.129 | [5] 0.042 | [6] -0.139 | [7] -0.007 | [8] -0.014 | [9] 0.063

RNF168 (UniProt Q8IYW5)
inactive: erlotinib -0.066 | [1] 0.141 | [3] -0.02 | [4] 0.149 | [5] -0.023 | [6] 0.101 | [7] 0.012 | [8] -0.043 | [9] -0.028

RHOXF2 (UniProt Q9BQY4)
inactive: erlotinib -0.067 | [1] -0.137 | [2] -0.002 | [3] 0.003 | [4] -0.06 | [5] 0.054 | [6] 0.06 | [7] -0.026 | [8] 0.036 | [9] 0.011

RHOG (UniProt P84095)
inactive: erlotinib 0.022 | [1] -0.02 | [2] 0.015 | [3] -0.003 | [4] 0.041 | [5] 0.008 | [6] 0.061 | [7] -0.013 | [8] -0.044 | [9] 0.032

RCOR3 isoform 3 (UniProt Q9P2K3)
inactive: erlotinib 0.116 | [1] 0.084 | [3] -0.008 | [4] 0.022 | [5] -0.01 | [6] -0.011 | [7] 0.018 | [8] -0.003 | [9] 0.057

RDH11 (UniProt Q8TC12)
inactive: erlotinib -0.007 | [1] -0.03 | [2] 0.102 | [3] 0.068 | [4] 0.084 | [5] -0.1 | [6] 0.029 | [7] 0.04 | [8] -0.044 | [9] -0.043

RBX1 (UniProt P62877)
inactive: erlotinib -0.005 | [1] 0.002 | [2] 0.08 | [3] -0.145 | [4] 0.048 | [5] 0.089 | [6] -0.095 | [7] -0.03 | [8] 0.014 | [9] 0.137

RNF213 isoform 4 (UniProt Q63HN8)
inactive: erlotinib 0.083 | [1] -0.183 | [2] -0.071 | [3] -0.004 | [4] 0.141 | [5] -0.245 | [6] -0.031 | [7] -0.051 | [8] 0.025 | [9] 0.047

RDH13 (UniProt Q8NBN7)
inactive: erlotinib 0.019 | [1] -0.004 | [2] 0.082 | [3] 0.01 | [4] 0.127 | [5] -0.024 | [6] 0.005 | [7] 0.007 | [8] 0.05 | [9] 0.007

RNF138 (UniProt Q8WVD3)
inactive: erlotinib 0.156 | [1] -0.136 | [2] 0.038 | [3] 0.036 | [4] -0.044 | [5] 0.019 | [7] 0.135 | [8] -0.024 | [9] 0.109

RBMX (UniProt P38159)
inactive: erlotinib -0.103 | [1] -0.101 | [2] -0.606 | [3] 0.064 | [4] -0.141 | [5] 0.04 | [6] -0.073 | [7] -0.032 | [8] 0.074 | [9] -0.193

RCCD1 (UniProt A6NED2)
inactive: erlotinib 0.052 | [1] -0.04 | [2] 0.053 | [3] -0.056 | [4] -0.018 | [5] 0.023 | [6] 0.004 | [7] -0.009 | [8] 0.065 | [9] 0.159
